A short description of the test: qHTS Assay for Lipid Storage Modulators in Drosophila S3 Cells.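 As to cell number change: cells counted by Cell Tracker Red CMTPX staining in the red channel.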 The note with it: BODIPY lipid droplet fluorescence, 18-24 h; for cell number change: measured here: cell count max response, cells fed with added oleic acid. A digest of the protocol: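 Laser-scanning cytometry quantifies lipid droplet accumulation (500–530 nm total intensity; droplet/cell object ratio) in oleic acid-fed (400 uM added) Drosophila S3 cells treated with a concentration series. 20 uM Triacsin C defined 100% inhibition.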

The mark [1] stands for this setting: measured here: lipid fluorescence (Fed channel) AC50, cells fed with added oleic acid.
Setting [2] is: measured here: cell number channel AC50, cells fed with added oleic acid.

SMILES strings stand for the structures. Some of the results follow. The main result of the screen is listed elsewhere. These columns were measured beside it and carry no call. The list favours compounds with an active or inconclusive main result. Words in brackets tell the shape of the fitted curve; partial curves, single points and poor fits give uncertain potencies.

As to `COc1cc(NC(=O)C2CCN(c3cnccn3)CC2)cc(OC)c1`, the cell number change was -14.1%. For the same compound, the AC50 under setting [1] is 29.1 µM [falling, partial curve].

For the compound `CCCCN(C(=O)c1cccc(C)c1)c1c(N)n(CCC)c(=O)[nH]c1=O`, the cell number change is 2.5%. Besides, under setting [1], the concentration at half-maximal activity (AC50) was 0.146 µM [rising, full curve, poor fit].

For the compound `COc1ccc(Cl)cc1NC(=O)COC(=O)c1cc(NS(=O)(=O)c2cccs2)ccc1O`, the cell number change came to 8.37%. Under setting [1], the half-maximal activity concentration (AC50) was 14.6 µM [rising, single point].

With `COc1ccc(N2C(=O)C3CC(C)=C(C)CC3C2=O)c(OC)c1` (centres undefined), the cell number change worked out at 12.3%. Moreover, the AC50 under setting [1] was 2.31 µM [falling, partial curve, poor fit].

For `COc1ccc(N2Cc3ccccc3C2=O)cc1`, the cell number change was found to be 7.33%. The concentration at half-maximal activity (AC50) under setting [1] was 0.00461 µM [rising, full curve, poor fit].

As for `COC(=O)CSc1nc2cc(OC)ccc2cc1C#N`, the cell number change came to 0.559%. Also, the half-maximal activity concentration (AC50) under setting [1] was 6.51 µM [rising, single point].

`CC(Oc1ccc(Cl)cc1Cl)c1nc(-c2ccccn2)no1` (centres undefined): the cell number change is -7.9%. Also, the AC50 under setting [1] is 1.16 µM [rising, single point].

Regarding `COc1ccc(/C=N/NC(=O)c2cccc([N+](=O)[O-])c2)cc1OS(=O)(=O)c1ccc(C)cc1`, the cell number change was -31.2%. For the same compound, the half-maximal activity concentration (AC50) under setting [2] was 23.1 µM [falling, single point]. Also, under setting [1], the AC50 was 13 µM [falling, partial curve].

With `CNC(=S)N/N=C/c1ccc(OCc2ccccc2)c(Br)c1`, the cell number change is -41.1%. Under setting [2], the AC50 is 29.1 µM [falling, single point]. Moreover, the half-maximal activity concentration (AC50) under setting [1] was 8.2 µM [falling, partial curve].

`COC(=O)c1c(O)ccc(Oc2ccccc2)c1C(=O)OC`: the cell number change was -34.1%. Under setting [2], the concentration at half-maximal activity (AC50) is 0.461 µM [falling, full curve, poor fit]. The half-maximal activity concentration (AC50) under setting [1] was 0.411 µM [falling, single point].

On to `COc1ccc(OC)c(S(=O)(=O)N2CCN(c3ncccn3)CC2)c1`, for which the cell number change was -16.3%. Further, under setting [1], the AC50 is 29.1 µM [falling, single point].

As to `Cn1c(=O)c2c(n3cnnc13)-c1ccccc1CC21CCCC1`, the cell number change was -24.3%. Also, under setting [1], the AC50 was 29.1 µM [falling, single point].

Consider `Cc1cccc(NCc2cccc3ccccc23)n1`, for which the cell number change was -21.7%. Moreover, the half-maximal activity concentration (AC50) under setting [1] is 0.651 µM [rising, single point].

With `CCCCSc1nc2c(cnn2-c2ccc(Cl)cc2)c(=O)[nH]1`, under setting [1], the AC50 was 0.651 µM [rising, full curve, poor fit].

On to `COc1ccc(-c2cc(=O)c3c(O)cc(O[C@@H]4O[C@H](CO[C@@H]5O[C@@H](C)[C@H](O)[C@@H](O)[C@H]5O)[C@@H](O)[C@H](O)[C@H]4O)cc3o2)cc1O`, for which the cell number change is -4.09%. Further, the AC50 under setting [1] is 29.1 µM [rising, single point].

Regarding `COc1cc(/C=C/C(=O)C2C(=O)C=C(C)OC2=O)cc(OC)c1O` (centres undefined), the cell number change is -20.9%. The AC50 under setting [1] was 11.6 µM [falling, partial curve, poor fit].

As to `COc1ccc2c(c1)-c1c(ssc1=S)C(C)(C)N2`, the cell number change is -66%. The AC50 under setting [2] is 29.1 µM [falling, single point]. Moreover, the AC50 under setting [1] is 29.1 µM [falling, single point].

For `Cc1cccc(N(CC(=O)Nc2c(C)n(C)n(-c3ccccc3)c2=O)S(C)(=O)=O)c1`, the cell number change is -111%. The concentration at half-maximal activity (AC50) under setting [2] was 29.1 µM [falling, single point].

As for `C=CCNC(=O)N1CCc2[nH]c3ccc(F)cc3c2C1`, the cell number change was found to be 13%.

For `COc1ccc(Cc2nnc(SCc3ccc([N+](=O)[O-])cc3)o2)cc1`, the cell number change turned out to be 15.1%. Besides, the half-maximal activity concentration (AC50) under setting [2] was 0.00461 µM [falling, full curve, poor fit].

In the case of `Cc1ccc(-c2nn3c(C)nnc3s2)cc1NC(=O)C(C)C`, the cell number change amounted to 34.1%. For the same compound, the concentration at half-maximal activity (AC50) under setting [2] was 23.1 µM [rising, single point]. Further, the AC50 under setting [1] is 23.1 µM [rising, single point].

Regarding `NC(=O)CC(NC(=O)c1ccccc1)c1ccc(N2CCN(c3ccc(F)cc3)CC2)c([N+](=O)[O-])c1` (centres undefined), the cell number change is -43.4%. In addition, under setting [2], the concentration at half-maximal activity (AC50) was 32.6 µM [falling, single point].

`CCN1C(=O)/C(=C\c2ccncc2)SC1=Nc1ccc(C)c(C)c1`: the cell number change amounted to 7.83%. Further, the AC50 under setting [1] was 2.06 µM [falling, partial curve].

On to `Cc1ccc(CNC(=O)CCc2nc3ccccc3c(=O)[nH]2)cc1`, for which the cell number change was determined as 20.7%. Also, under setting [1], the AC50 is 8.2 µM [rising, single point].

Consider `COc1ccc(-c2noc(-c3cc(C)cc(C)c3)n2)cc1OC`, for which the cell number change was -16.7%. The concentration at half-maximal activity (AC50) under setting [2] is 4.11 µM [rising, single point]. In addition, the concentration at half-maximal activity (AC50) under setting [1] was 9.2 µM [rising, partial curve, poor fit].

For the compound `COc1cc(OC)cc(C(=O)NCc2nc(-c3ccccc3)no2)c1`, the cell number change is -45.5%. Besides, the concentration at half-maximal activity (AC50) under setting [2] was 32.6 µM [falling, partial curve, poor fit].

`CCOC(=O)C(Cc1ccccc1)NC(C)=O` (centres undefined): the cell number change was -55.6%. Under setting [2], the concentration at half-maximal activity (AC50) was 5.8 µM [falling, full curve]. Also, the AC50 under setting [1] is 2.59 µM [falling, full curve].

With `COc1ccc(-c2nnc(SCC(=O)NC3CCCCC3)o2)cc1OC`, the cell number change is -46.5%. In addition, under setting [2], the half-maximal activity concentration (AC50) was 16.4 µM [falling, partial curve, poor fit].

In the case of `Cc1ccc2sc(N(CCCN(C)C)C(=O)c3ccc(Br)s3)nc2c1C`, under setting [1], the half-maximal activity concentration (AC50) is 2.06 µM [falling, partial curve].

As to `Cc1ccc(-c2c[n+](CC(=O)c3ccc(Br)cc3)c3n2CCCCC3)cc1`, the cell number change was -66%. The half-maximal activity concentration (AC50) under setting [2] is 18.4 µM [falling, single point]. The concentration at half-maximal activity (AC50) under setting [1] is 16.4 µM [falling, single point].

With `CS(=O)(=O)Nc1ccc(C(=O)Nc2ccccc2Cl)cc1`, the cell number change amounted to 112%. The AC50 under setting [2] was 29.1 µM [rising, single point].

Regarding `COc1ccc(C(CNC(=O)c2oc3cc(C)c(C)cc3c2C)N2CCCCC2)cc1` (centres undefined), the cell number change was found to be 11%.

`Cc1cc(NS(=O)(=O)c2ccc(NC(=O)/C=C/c3ccccc3)cc2)no1`: the cell number change was found to be 7.66%. The AC50 under setting [1] was 29.1 µM [rising, single point].

Consider `N#Cc1c2c(c(-c3ccccc3Cl)[nH]c1=S)CCCC2`, for which the cell number change was -18.2%. For the same compound, the AC50 under setting [2] is 0.092 µM [falling, full curve, poor fit].

In the case of `C/C(=N\NC(=O)c1ccc(CSc2nncn2C)cc1)c1ccc(C#N)cc1`, the cell number change was determined as 15.9%. Also, under setting [1], the half-maximal activity concentration (AC50) was 1.46 µM [rising, partial curve, poor fit].

Broadly, the AC50 is the concentration giving half of the maximal activity seen. Lower therefore signals activity at low concentration.

The values are drawn from PubChem BioAssay AID2685 (National Center for Advancing Translational Sciences (NCATS), 2010).
